The text below walks through data of PubChem BioAssay AID2685 (National Center for Advancing Translational Sciences (NCATS), 2010).

A word on the AC50: it is the midpoint of the concentration-response curve, whichever way the signal moves. Read a high AC50 as activity only at high concentration.

The test is described as follows: qHTS Assay for Lipid Storage Modulators in Drosophila S3 Cells.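 As to cell number change: cells counted by Cell Tracker Red CMTPX staining in the red channel.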 To be noted: BODIPY lipid droplet fluorescence, 18-24 h; for cell number change: measured here: cell count max response, cells fed with added oleic acid. The essentials:
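Laser-scanning cytometry quantifies lipid droplet accumulation (500–530 nm total intensity; droplet/cell object ratio) in oleic acid-fed (400 uM added) Drosophila S3 cells treated with a concentration series. 20 uM Triacsin C defined 100% inhibition.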
A general note: In qHTS, concentration-response curves come from the screen itself.

The mark [1] stands for this setting: measured here: cell number channel AC50, cells fed with added oleic acid.
[2] abbreviates: measured here: lipid fluorescence (Fed channel) AC50, cells fed with added oleic acid.

Some of the results follow. The main result of the screen is listed elsewhere. These columns were measured beside it and carry no call. Compounds called inactive in the main read-out are mostly missing here. Words in brackets tell the shape of the fitted curve; partial curves, single points and poor fits give uncertain potencies.

Turning to `Cc1cccc(Cl)c1NNC(=O)Nc1c([N+](=O)[O-])c(C)nn1C`, the AC50 runs as follows: under setting [1], 0.259 µM [rising, full curve]; under setting [2], 0.146 µM [rising, full curve, poor fit].

Regarding `CCc1ccc(CN2CCN(S(=O)(=O)Cc3ccccc3)CC2)cc1`, the cell number change came out at 13.3%. Further, under setting [2], the AC50 was 16.4 µM [rising, partial curve].

For the compound `O=C(CCN=C1NS(=O)(=O)c2ccccc21)OCc1c(F)c(F)c(F)c(F)c1F`, the cell number change is -50%.

In the case of `CCOC(=O)c1c(N)sc(C(O)(C(F)(F)F)C(F)(F)F)c1-c1ccc(F)cc1`, the cell number change was -62.6%. Under setting [1], the AC50 is 29.1 µM [falling, single point]. Further, the AC50 under setting [2] was 29.1 µM [falling, single point].

Turning to `CC(C)(C)C1CCC(OCC(O)CN2CCN(c3ccccc3)CC2)CC1` (stereo not given), the cell number change is -5.44%. Under setting [2], the AC50 was 3.66 µM [rising, single point].

For the compound `CCOC(=O)C1CCN(C(C(=O)NC2CCCCC2)c2ccc(OC)cc2)CC1` (stereo not given), the cell number change is 16.2%.

Take `CC(=O)N1CCN(c2ccc(NCc3ccc(C)cc3)cc2)CC1`: the cell number change turned out to be 13.5%. Further, under setting [2], the AC50 is 29.1 µM [rising, single point].

For `COc1cc(-c2cc(C(=O)Nc3ccc(N4CCOCC4)cc3)c3ccccc3n2)cc(OC)c1OC`, the cell number change was found to be 24%. For the same compound, under setting [1], the AC50 was 0.116 µM [rising, full curve, poor fit].

Consider `Nc1c2c(nc3sc4c(c13)CCCCC4)CCCCC2`, for which the AC50 under setting [2] was 29.1 µM [falling, single point].

For the compound `O=C(NNC(=O)c1ccncc1)c1ccncc1`, the cell number change is -38.3%. For the same compound, the AC50 under setting [1] was 20.6 µM [falling, single point]. In addition, under setting [2], the AC50 is 20.6 µM [falling, single point].

`CCC1CCCCN1C(=S)NC(=O)c1cc(Br)ccc1Cl` (stereo not given): under setting [2], the AC50 was 0.164 µM [rising, full curve, poor fit].

In the case of `CCCCNC(=S)NCCN1CCN(C(=S)NCCCC)CC1`, the cell number change is -16.4%. Also, under setting [1], the AC50 was 0.00461 µM [falling, full curve, poor fit].

On to `CC1CCc2cc(F)ccc2N1C(=O)C1(C)CC1(Cl)Cl` (stereo not given), for which the cell number change was -14.3%. Also, the AC50 under setting [2] is 0.13 µM [falling, full curve, poor fit].

With `CCN(CC)c1ncnc2c1[nH]c1ccccc12`, the cell number change was 5.58%. Also, the AC50 under setting [2] is 3.66 µM [rising, partial curve].

In the case of `CN(C)S(=O)(=O)c1ccc(N=Cc2c(C(F)(F)F)[nH]n(C)c2=O)cc1`, under setting [1], the AC50 is 0.326 µM [falling, full curve, poor fit].

Turning to `Cc1ccc(CC(=O)NCCCn2ccnc2)cc1`, the cell number change came out at 37.1%. The AC50 under setting [1] was 16.4 µM [rising, single point].

On to `COc1ccc2c(C)cc(SCC(=O)NCC3CCCO3)nc2c1` (stereo not given), for which the cell number change was 31.1%. Besides, the AC50 under setting [2] was 29.1 µM [rising, single point].

Consider `CC(OC(=O)c1cc(=O)c2cc(Cl)ccc2o1)C(=O)N1CCCC1` (stereo not given), for which the cell number change was -26.5%.

For `Cc1ccc(-n2cc(CN(C)Cc3nccn3C)c(-c3cccc(C)c3)n2)cc1`, the cell number change is -17.1%. Besides, under setting [2], the AC50 is 0.00461 µM [falling, full curve, poor fit].

As for `Nc1cc(Cl)ccc1Oc1ccc(Cl)cc1`, the cell number change is -48.2%. Further, the AC50 under setting [1] was 29.1 µM [falling, single point]. Also, the AC50 under setting [2] is 23.1 µM [falling, single point].

As for `O=C(Cn1ccsc1=NC(=O)c1ccco1)c1ccccc1`, the cell number change stood at 18.9%. In addition, the AC50 under setting [2] was 0.58 µM [rising, full curve].

With `O=C(COC(=O)c1ccc([N+](=O)[O-])s1)NC(c1ccccc1)c1ccccc1`, the cell number change was found to be 0.235%. The AC50 under setting [2] is 1.64 µM [falling, partial curve, poor fit].

As to `COc1c(C(=O)Nc2ccc(CN3CCOCC3)cc2)cc2ccccc2c1Br`, the cell number change was -13.5%. The AC50 under setting [2] was 2.91 µM [rising, single point].

For the compound `O=C(CSc1ccc(-c2cccs2)nn1)N1CCCCCC1`, the cell number change is -18.8%.

As for `CCCSc1cc(N2CCOCC2)nc(-c2ccccc2Cl)n1`, the cell number change is 99.7%. Moreover, the AC50 under setting [1] is 29.1 µM [rising, single point]. For the same compound, the AC50 under setting [2] was 29.1 µM [rising, single point].

Consider `CN(C)Cc1ccc(F)cc1Sc1ccc(Cl)cc1Cl`, for which the cell number change is -51.1%. Further, the AC50 under setting [1] is 29.1 µM [falling, single point]. For the same compound, the AC50 under setting [2] is 11.6 µM [falling, partial curve, poor fit].

Consider `O=C(NCc1nc2ccccc2[nH]1)c1ccccc1F`, for which the cell number change was -19.5%.

In the case of `COC(=O)c1sccc1NC(=O)c1ccc(Cl)cc1`, the cell number change is -30.5%. Under setting [1], the AC50 was 0.411 µM [falling, full curve, poor fit]. For the same compound, the AC50 under setting [2] was 10.3 µM [falling, partial curve].

As to `CCOC(=O)N1CCN(c2c(NCc3ccccc3OC)c(=O)c2=O)CC1`, the cell number change was -11.6%. The AC50 under setting [2] is 0.103 µM [rising, full curve, poor fit].

As to `COc1ccc(CC(=O)NC(C)(C)CC(C)=O)cc1OC`, the cell number change was determined as 165%.

As for `CC(=O)O[C@H]1CC(=O)OC(C)(C)C2CC(=O)[C@]3(C)C(CC[C@@](C)([C@@H](O[C@@H]4O[C@H](CO)[C@@H](O)[C@H](O)[C@H]4O)c4ccoc4)[C@@]34O[C@@H]4C(=O)O)[C@]21C` (stereo not given in full), the cell number change came out at 18.9%. Moreover, under setting [2], the AC50 was 10.3 µM [falling, single point].

For `CCCCNC(=O)Nc1ccccc1C(=O)NCc1ccco1`, the cell number change stood at 7.38%. Also, the AC50 under setting [2] is 2.91 µM [rising, single point].

Take `COc1cc(CNc2ncn[nH]2)cc(Br)c1OC`: the cell number change was -19.9%. Further, under setting [1], the AC50 was 0.0326 µM [falling, full curve, poor fit].

Consider `COc1ccc(N(C(=O)/C=C/C(=O)Nc2cc(C)on2)C(C(=O)NC2CCCC2)c2ccccc2C)cc1` (stereo not given), for which the cell number change is -18.9%. Moreover, the AC50 under setting [1] is 0.291 µM [falling, full curve, poor fit]. For the same compound, the AC50 under setting [2] was 20.6 µM [falling, single point].

On to `CCOc1ccccc1NC(=O)[C@@H](NC(=O)c1ccccc1F)C(C)C`, for which the cell number change was determined as 2.25%. In addition, the AC50 under setting [2] was 2.91 µM [rising, single point].

In the case of `CCCCCn1c(=O)[nH]c2cc(C(=O)NCCCN(CC)CC)ccc2c1=O`, the cell number change is -17.6%. Under setting [1], the AC50 was 0.116 µM [falling, full curve, poor fit].

As for `CC(C)OP(=O)(OC(C)C)C1(NS(=O)(=O)c2ccc(Cl)cc2)C=C(Cl)C(=O)C(Cl)=C1`, the cell number change amounted to 8.02%.

In the case of `C=CCNC(=O)c1cccn1-c1ccsc1C(=O)OC`, the half-maximal activity concentration (AC50) under setting [2] is 0.651 µM [falling, full curve, poor fit].

On to `CCCn1c(C2CCCN2c2nc(-c3ccc(OC)cc3)cs2)nc2ccccc21` (stereo not given), for which the cell number change worked out at 8.74%. Moreover, under setting [2], the AC50 is 0.00517 µM [rising, full curve, poor fit].

In the case of `O=C(NCCc1ccccc1)C1CCC(CNS(=O)(=O)c2cccc3cccnc23)CC1` (stereo not given), the cell number change worked out at 10.2%. Also, the AC50 under setting [2] is 6.51 µM [rising, single point].

In the case of `COc1ccc([C@@H]2CC=C(C(=O)O)[C@H](c3ccccc3F)N2S(=O)(=O)c2ccccc2C)cc1`, the cell number change was found to be 10.4%. The AC50 under setting [1] was 2.31 µM [falling, single point]. For the same compound, the AC50 under setting [2] was 6.51 µM [rising, single point].

For `CC(C)(C)C1CCC(=NNc2ncc(C(F)(F)F)cc2Cl)CC1` (stereo not given), the half-maximal activity concentration (AC50) is 2.06 µM [rising, single point] under setting [1] and 1.84 µM [rising, partial curve] under setting [2].

As for `C/C(=N/NC(=O)c1ccc(Cl)s1)c1cccnc1`, the cell number change was -3.78%. The AC50 under setting [1] was 3.26 µM [falling, single point]. Also, the AC50 under setting [2] was 29.1 µM [falling, single point].

As to `CCCc1[nH]nc2c1C(c1ccc(Br)s1)C(C#N)=C(N)O2` (stereo not given), the AC50 is, setting by setting: under setting [1], 0.651 µM [rising, full curve]; under setting [2], 25.9 µM [falling, single point].

As to `CCc1ccc(NC(=O)N2CCN(c3ccccc3)CC2)cc1`, the cell number change was found to be 16.4%. The AC50 under setting [2] is 0.1 µM [rising, full curve, poor fit].

Consider `CC(C)(C)c1nc(CN2CCCCC2)cc(CN2CCCCC2)c1O`, for which the AC50 under setting [2] was 8.2 µM [falling, partial curve].

As for `CCNc1nc(N)nc(-c2cc(Cl)ccc2O)n1`, the cell number change was -44.3%. Under setting [1], the AC50 was 16.4 µM [falling, partial curve, poor fit]. For the same compound, the AC50 under setting [2] is 1.64 µM [rising, partial curve].

In the case of `COc1ccc(C(=O)CN2CCN(c3ccc(F)cc3)CC2)cc1`, the cell number change was -16.1%. Under setting [1], the AC50 was 7.31 µM [falling, partial curve, poor fit]. Besides, under setting [2], the AC50 was 1.3 µM [rising, partial curve].

For the compound `O=C(O)c1cccc(-n2cc(-c3cccc(C(F)(F)F)c3)cn2)c1`, the cell number change was found to be 26.1%. Further, under setting [1], the AC50 was 0.291 µM [rising, full curve, poor fit]. Moreover, under setting [2], the AC50 was 29.1 µM [rising, single point].

Take `CCOc1cc2[nH]c(=S)n(CCC(=O)NCc3ccco3)c(=O)c2cc1OCC`: the cell number change was 38.5%. The AC50 under setting [1] is 16.4 µM [rising, single point]. The AC50 under setting [2] was 23.1 µM [rising, single point].

Regarding `O=C(N1CCCC1)N1CCN(S(=O)(=O)c2ccccc2)CC1`, the cell number change was -7.89%. Under setting [1], the AC50 is 0.082 µM [rising, full curve, poor fit].

With `CCn1c2ccccc2c2nc3ccccc3nc21`, the cell number change was -3.74%. The AC50 under setting [2] was 7.31 µM [falling, partial curve].

As for `NCCCC[C@H](N)c1nnc([C@H](CC(=O)O)NC(=O)C2CCNCC2)o1`, the cell number change was -2.12%. Under setting [2], the AC50 is 20.6 µM [falling, single point].

As to `O=C(Cc1ccc(Cl)cc1)NCC(=O)N1CCN(Cc2ccccc2)CC1`, the cell number change is 16.7%. Moreover, the AC50 under setting [2] was 0.58 µM [rising, full curve].

As to `O=C(/C=C/c1cc(Br)ccc1O)c1ccco1`, the cell number change was -51.6%. Moreover, under setting [1], the AC50 was 29.1 µM [falling, partial curve, poor fit]. Moreover, the AC50 under setting [2] was 13 µM [falling, partial curve].

As for `Cc1ccc(S(=O)(=O)Oc2cc(N)c3c(n2)CCC3)cc1`, the cell number change is -40.5%. The AC50 under setting [1] is 29.1 µM [falling, single point]. Besides, the AC50 under setting [2] was 23.1 µM [falling, single point].
